Test results: the supplement of paper PMC5949888
Most values lie at the floor of the assay. Slopes are relative: functional sequences can read slightly below zero.

These substances were tested on Saccharomyces cerevisiae PS128 hsf1 delta, HSF1(1-493) fusion (assay: growth estimate (transactivation domain function in HSF1 fusion, heat-shock survival) (a.u. (slope of normalised read count over time)); higher = stronger growth at 37°C, i.e. more transactivation activity). Settings: library: random library.
Protocol: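 Random 60-nt DNA library encoding peptides of up to 20 aa, fused to the C-terminus of yeast HSF1 residues 1-493 (C-terminal TAD deleted) and expressed from the native HSF1 promoter on a CEN plasmid in hsf1-deleted S. cerevisiae PS128. Cells were selected at 37°C on -trp 5-FOA plates for 0, 2, 4, 6 and 8 days and amplicons were sequenced. Growth estimate is the slope of a robust linear fit of total-sum-normalised read counts (normalised to the first time point) over time, using at least 2 replicates. Sequences are classed functional (TAD activity) above a threshold of -0.13, set from stop-codon control sequences.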

Substance	growth estimate
PREIKIGLASRL	< -0.25
SEPLVLRNPNMLGDAPESRH	< -0.25
PTSGWTTDG	< -0.25
PDGSQVVL	< -0.25
VGPLSWELPY	-0.244
VLDLPLLTPRALKARQDLA	< -0.25
SISLGSDFDKYSLRGLLSLF	< -0.25
TALM	-0.241
ERLLRRFSWGTGVAD	< -0.25
LEAREKN	< -0.25
VDGNG	< -0.25
RLRHREVIRRGHRTTKLVVL	< -0.25
NYILEA	< -0.25
FRHEQLRRREFGSRRQGRAR	< -0.25
GTFQLHQHYCERSPDCVPIL	< -0.25
LAAYRGGLLSSDHSTRQSIF	< -0.25
CRDRSVGAN	< -0.25
GASGVAGGDAISEARFGQ	< -0.25
DQSTGRCRAIFTR	< -0.25
HHRCRWALN	< -0.25
VNRDGPAPTEVETGNRRGLV	< -0.25

Substance	growth estimate
LSGLSDYQLAT	-0.185
KPV	< -0.25
IDRHFRELSGEGHCCQTMLP	< -0.25
VIDTTRVGLRYQIAM	< -0.25
STARTCESHDYSHIQLLKST	< -0.25
SQSGRIR	< -0.25
LDVVLTSNHTGARVFS	< -0.25
WKAAMRVSCRSSGHPKLWTN	< -0.25
EDVREPGLYMYPHRRTSKEP	< -0.25
PPTVLTGILMKLVRVRKHPM	< -0.25
ICSSSIPVPVWLRVIAALQS	< -0.25
RRP	< -0.25
LRVGTMK	< -0.25
ASRIESWPIYNLRMLSAQIT	< -0.25
SSLRSPPSLGAGC	< -0.25
FMAERCRRSWQGALVCP	< -0.25
MGPLRQGHRSSYP	< -0.25
VQVVRGEAAMGGLKHEK	< -0.25
EGYRMPAALLSSDIRGGVRS	< -0.25
PCKCIQSEASLYALYALPLC	< -0.25
LTCCSIRFSIPSSG	< -0.25

Substance	growth estimate
GFVLCMRVLPPTLLLTARQE	< -0.25
SSGVHQFHGSASGIDGNPWD	< -0.25
PRRSFGENGFLKGWIRVRPI	< -0.25
RLSCQITLEKDQMRDRTGLG	< -0.25
SAM	< -0.25
LSAW	< -0.25
RRGEVVGPQTILQQSHRRET	< -0.25
KVQQDKFCMTKSNITQYYYV	< -0.25
CTPLVPTVP	< -0.25
NSMSVRRAGGPTRERIRTSL	< -0.25
HLLRPIALTRIRGPYRASGA	< -0.25
LNSSRRAQEALALAYDSDSG	< -0.25
LVGRRNPRTPRDPRADQ	-0.243
GGLGSVRGPAPKKRDALSR	< -0.25
VPS	< -0.25
VPSGQMANDFSNEPHANW	< -0.25
LIV	< -0.25
GKYTANFRICYASWRDAQRR	< -0.25
SEVPT	< -0.25
VTV	0.0829
NFCLCQCLEHCERFR	< -0.25

Substance	growth estimate
PGSLDHGGEVNDSIGDITLE	< -0.25
VDR	< -0.25
PIVSL	< -0.25
SIQMPGLQLGALG	< -0.25
AYYSSPAGFERDPTGSRCSA	< -0.25
RGSGNERLRLVECPCVSLTI	< -0.25
RYGSFTLLDISGPVLSNASQ	< -0.25
SYGEHHLERAVVDEISGPHA	< -0.25
FTLVRDSPGPIQPTTSPSPI	< -0.25
WSIIR	< -0.25
AVGDRRT	< -0.25
DLSVVDDKLGRFKF	< -0.25
RRLKSIGRKRSCA	< -0.25
PALCGRNP	< -0.25
LRQIT	< -0.25
LVLLKGFRQQPIYS	< -0.25
WSIRPPSLGPYYVGVRMTGT	< -0.25
TLVGLVDGIATRARAYRRSP	< -0.25

No new results follow: an excerpt of the list.
Substance	growth estimate
SIQMPGLQLGALG	< -0.25
AYYSSPAGFERDPTGSRCSA	< -0.25
RGSGNERLRLVECPCVSLTI	< -0.25
RYGSFTLLDISGPVLSNASQ	< -0.25
SYGEHHLERAVVDEISGPHA	< -0.25
FTLVRDSPGPIQPTTSPSPI	< -0.25
WSIIR	< -0.25
AVGDRRT	< -0.25
DLSVVDDKLGRFKF	< -0.25
RRLKSIGRKRSCA	< -0.25
PALCGRNP	< -0.25
LRQIT	< -0.25
LVLLKGFRQQPIYS	< -0.25
WSIRPPSLGPYYVGVRMTGT	< -0.25
TLVGLVDGIATRARAYRRSP	< -0.25
